# In the supplement of paper PMC12067093, “Discovery and optimisation of a covalent ligand for TRIM25 and its application to targeted protein ubiquitination” (Chemical Science, 2025):
# By UniProt entry, the sequences of proteins in these tests, tags left out. Where a name states a change or a piece, a line headed by the entry shows the natural chain unless it says otherwise.
# UniProt P15927: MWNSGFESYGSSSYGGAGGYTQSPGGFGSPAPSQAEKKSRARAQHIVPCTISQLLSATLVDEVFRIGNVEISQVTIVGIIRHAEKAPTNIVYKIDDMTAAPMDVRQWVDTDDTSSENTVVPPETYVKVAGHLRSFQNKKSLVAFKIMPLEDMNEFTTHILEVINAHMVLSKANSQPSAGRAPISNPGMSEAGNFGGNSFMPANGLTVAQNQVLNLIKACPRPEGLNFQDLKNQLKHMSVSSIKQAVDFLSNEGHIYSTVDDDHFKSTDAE
# The other results are listed elsewhere or left out.
# Target: RPA2_P15927_49_AQHIVPCTISQLLSATLVDEVFR (UniProt P15927)
# Assay: probe-labelled cysteine peptide fold change vs DMSO (competition) (log2 fold change); higher = less target engagement (more negative = stronger competition)
# Conditions: THP-1, incubation time: 4 h
# 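Also: competitive profiling in live THP-1 cells: cysteine peptides tagged with an iodoacetamide desthiobiotin (IA-DTB) probe, intensity after compound treatment relative to DMSO-treated cells.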
smiles,measurement,setting,value
Cc1cc(C(=O)N2CCCN(C(=O)CCl)CC2)ccc1-c1ccccc1 [compound 10],probe-labelled cysteine peptide fold change,10 µM,0.159
same,probe-labelled cysteine peptide fold change,50 µM,0.205
